Test results as given in PMC9104323.
Results are given in words; binding and its absence hold for the method and conditions named. In cells and extracts the contact can be indirect.

By UniProt entry, the sequences of proteins in these tests, tags left out.
UniProt P04150: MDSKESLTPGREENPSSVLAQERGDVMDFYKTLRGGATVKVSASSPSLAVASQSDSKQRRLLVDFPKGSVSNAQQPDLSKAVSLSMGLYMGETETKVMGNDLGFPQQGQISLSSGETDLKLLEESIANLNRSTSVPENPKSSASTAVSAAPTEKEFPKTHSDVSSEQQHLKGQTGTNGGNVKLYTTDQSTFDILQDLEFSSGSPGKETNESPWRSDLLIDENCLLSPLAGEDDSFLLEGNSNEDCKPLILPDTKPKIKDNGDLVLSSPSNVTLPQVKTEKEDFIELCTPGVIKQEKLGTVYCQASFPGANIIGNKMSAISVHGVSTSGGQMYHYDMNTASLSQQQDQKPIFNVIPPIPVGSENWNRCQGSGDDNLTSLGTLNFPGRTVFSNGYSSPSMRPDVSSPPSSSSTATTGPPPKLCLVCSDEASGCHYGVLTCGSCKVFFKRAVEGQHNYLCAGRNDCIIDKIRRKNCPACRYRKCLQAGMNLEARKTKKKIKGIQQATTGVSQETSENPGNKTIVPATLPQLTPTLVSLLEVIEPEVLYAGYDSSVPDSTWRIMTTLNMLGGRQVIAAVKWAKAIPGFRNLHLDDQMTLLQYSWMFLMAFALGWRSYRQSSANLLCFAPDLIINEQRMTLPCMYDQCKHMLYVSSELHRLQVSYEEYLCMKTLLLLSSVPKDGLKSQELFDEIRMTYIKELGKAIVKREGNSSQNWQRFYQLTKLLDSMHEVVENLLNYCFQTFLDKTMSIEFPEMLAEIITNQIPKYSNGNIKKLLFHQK
UniProt Q13263: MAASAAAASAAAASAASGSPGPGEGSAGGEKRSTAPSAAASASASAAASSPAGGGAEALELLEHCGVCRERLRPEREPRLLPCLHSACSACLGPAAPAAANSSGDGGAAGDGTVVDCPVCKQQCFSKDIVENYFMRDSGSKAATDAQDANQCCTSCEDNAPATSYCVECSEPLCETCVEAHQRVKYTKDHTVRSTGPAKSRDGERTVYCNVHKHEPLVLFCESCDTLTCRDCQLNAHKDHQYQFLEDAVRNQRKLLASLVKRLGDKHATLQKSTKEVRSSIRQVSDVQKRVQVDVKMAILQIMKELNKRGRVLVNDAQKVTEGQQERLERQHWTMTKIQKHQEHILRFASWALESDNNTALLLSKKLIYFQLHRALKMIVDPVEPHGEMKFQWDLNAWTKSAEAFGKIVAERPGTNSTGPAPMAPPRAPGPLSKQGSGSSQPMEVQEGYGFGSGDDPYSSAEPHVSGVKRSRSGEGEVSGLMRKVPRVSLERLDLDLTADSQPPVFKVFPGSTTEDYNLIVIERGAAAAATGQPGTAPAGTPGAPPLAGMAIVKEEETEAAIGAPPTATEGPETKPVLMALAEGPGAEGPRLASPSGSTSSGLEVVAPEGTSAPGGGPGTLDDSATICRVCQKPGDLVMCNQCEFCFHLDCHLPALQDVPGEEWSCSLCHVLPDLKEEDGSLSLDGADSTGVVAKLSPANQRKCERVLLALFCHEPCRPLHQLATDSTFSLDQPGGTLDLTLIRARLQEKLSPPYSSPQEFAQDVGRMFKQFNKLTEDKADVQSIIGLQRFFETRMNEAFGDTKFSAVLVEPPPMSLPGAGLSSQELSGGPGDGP

Molecular target: glucocorticoid receptor (human (endogenous in HEK293)) (UniProt P04150)
Assay: co-IP; IP from HEK293 whole cell lysates with anti-GR (G-5), anti-AMPD2 (QQ13) and anti-TRIM28 (PA5-27648) antibodies; western blot for GR, AMPD2 and TRIM28

With “transcription intermediary factor 1-beta (from UniProt Q13263 1-835)” the binding was “no binding”.

B1: AMP deaminase 2 (protein, UniProt Q01433 1-825)
chain: MASYPSGSGKPKAKYPFKKRASLQASTAAPEARGGLGAPPLQSARSLPGPAPCLKHFPLDLRTSMDGKCKEIAEELFTRSLAESELRSAPYEFPEESPIEQLEERRQRLERQISQDVKLEPDILLRAKQDFLKTDSDSDLQLYKEQGEGQGDRSLRERDVLEREFQRVTISGEEKCGVPFTDLLDAAKSVVRALFIREKYMALSLQSFCPTTRRYLQQLAEKPLETRTYEQGPDTPVSADAPVHPPALEQHPYEHCEPSTMPGDLGLGLRMVRGVVHVYTRREPDEHCSEVELPYPDLQEFVADVNVLMALIINGPIKSFCYRRLQYLSSKFQMHVLLNEMKELAAQKKVPHRDFYNIRKVDTHIHASSCMNQKHLLRFIKRAMKRHLEEIVHVEQGREQTLREVFESMNLTAYDLSVDTLDVHADRNTFHRFDKFNAKYNPIGESVLREIFIKTDNRVSGKYFAHIIKEVMSDLEESKYQNAELRLSIYGRSRDEWDKLARWAVMHRVHSPNVRWLVQVPRLFDVYRTKGQLANFQEMLENIFLPLFEATVHPASHPELHLFLEHVDGFDSVDDESKPENHVFNLESPLPEAWVEEDNPPYAYYLYYTFANMAMLNHLRRQRGFHTFVLRPHCGEAGPIHHLVSAFMLAENISHGLLLRKAPVLQYLYYLAQIGIAMSPLSNNSLFLSYHRNPLPEYLSRGLMVSLSTDDPLQFHFTKEPLMEEYSIATQVWKLSSCDMCELARNSVLMSGFSHKVKSHWLGPNYTKEGPEGNDIRRTNVPDIRVGYRYETLCQELALITQAVQSEMLETIPEEAGITMSPGPQ
In the case of B1, the binding is reported as “no binding”.
